One series concerns ASO 297. The experiment in a line: SPR (BIAcore) binding kinetics and affinity. The note with it: analyte ASO 297; bivalent IgG format. The procedure: (§1) In more detail, LNA binding of the antibodies according to the current invention was characterized by surface plasmon resonance (SPR) using a BIAcore instrument with a HEPES-based running and dilution buffer at 25° C. About 100-200 resonance units (RU) of an anti-LNA antibody with an Fc-region of the human IgG1 subclass and the mutations P329G, L234A and L235A (according to Kabat EU index; human IgG Fc-PGLALA) or an anti-LNA Fab fragment with human CL and CH1 (kappa, IgG1 isotype), respectively, was captured on the surface of a Series S Sensor Chip CM3 derivatized by standard amine coupling with either a mouse anti-human IgG Fc-PGLALA antibody or a goat anti-human F(ab′2) antibody with final total surface densities of approximately 5000 RU. Different LNA-modified ASOs were passed over the derivatized SPR chip surface by injecting the respective solutions in a 1:3 dilution series up to a final concentration of 1000 nM. Association was monitored for 3 min and dissociation for 5 min at a flow rate of 30 μl/min each. Bulk refractive index differences were corrected by subtracting blank injections and by subtracting the response obtained from the reference flow cell without captured antibody. Curve fitting was performed using the 1:1 Langmuir binding model within the BIAcore evaluation software.
(§2) To assess the binding specificities and affinities of the LNA-binding antibodies according to the current invention, surface plasmon resonance was used as described, e.g., in WO 2020/141117 and WO 2022/175217.
(§3) To assess the specificities and affinities of LNA-binding antibodies, surface plasmon resonance was done as described in WO 2020/141117 and WO 2022/175217. ASO binding was investigated by surface plasmon resonance (SPR) using a BIAcore T200 instrument (Cytiva). As a running and dilution buffer, HEPES buffered saline (HBS) containing 0.05% PS20 was used, the temperature was set to 25° C. For capturing anti-LNA Fabs or complete anti-LNA antibodies to a Series S Sensor Chip CM3 (Cytiva), either a mouse anti-human IgG antibody (Roche Diagnostics GmbH) or a goat anti-human F(ab′2) antibody (Jackson ImmunoResearch) was immobilized using standard amine coupling chemistry with final total surface densities of approximately 5000 resonance units (RU). The anti-LNA antibodies were captured to the surface by an injection for 30 sec., leading to response levels of approx. 100-200 RU. Different ASO molecules were injected in a 1:3 dilution series up to 1000 nM. Association was monitored for 3 min. and dissociation for 5 min. at a flow rate of 30 μl/min each. Subsequently, the surface was regenerated by injecting 10 mM NaOH (anti-human IgG antibody surface) or 10 mM Glycine pH 1.7 (anti-human IgG F(ab′2) antibody surface) for 60 sec. […]

Another series has as its system ASO 420. The experiment in a line: SPR (BIAcore) binding kinetics and affinity. The conditions noted are these: analyte ASO 420; bivalent IgG format. The procedure: as §1, §2, §3
(Surface plasmon resonance follows binding to a sensor surface in real time, without labels.)

B1: mAb 5393: anti-LNA antibody produced by clone 1.9.21 in the bivalent standard Y-shaped IgG format (antibody, V domains shown)
VH: QVQLQQSGAELVRPGTSVKVSCKASGYAFTNYLIEWIKQRPGQGLEWIGVINPGSGGTNYNEKFRVKATLTADKSSSTAYMQLSSLTSDDSAVYFCARGGGYYWGQGTLVTVSA
VL: DIVMTQAAPSVPVTPGESVSISCRSSKSLLHSNGNTYLFWFLQRPGQSPQVLIYRMSNLASGVPDRFSGSGSGTAFTLRISRVEAEDVGVYYCMQHLEYPYTFGSGTRLEIK
Regarding B1, the molar ratio is given as 0.4 in the series on ASO 297 and 1.1 with ASO 420.

B2: mAb 5392: anti-LNA antibody produced by clone 1.7.15 in the bivalent standard Y-shaped IgG format (antibody, V domains shown)
VH: QVQLKQSGPSFVQPSQSLSITCTVSGFSLTTYGVHWVRQSPGKGLEWLGVIWRSGGTDYNAAFMSRLSITKDNSKSQVFFKMNSLQTDDTAIYYCTNLYYWGQGTTLTVSS
VL: DIVMTQATFSNPVTLGTSVSISCRSSKSLLRSNGITYLYWYLQKPGQSPQLLIYQMSNLASGVPDRFSSSGSGTDFTLRISRVEAEDVGVYYCGQNLELPYTFGSGTKVEIK
Consider B2, for which the molar ratio in the series with ASO 297 was found to be 0.4; with ASO 420, 0.2.
